Results published in patent US11746087B1, “C4-carboxylic acid-substituted tryptamine derivatives and methods of using” (priority 2022, dated 2023).
At least one structure is not confirmed: it was looked up by name or label, or the drawing left a doubt.

Sequences of proteins named here, by UniProt entry; tags and fusion partners are left off.
UniProt P35363, whole entry: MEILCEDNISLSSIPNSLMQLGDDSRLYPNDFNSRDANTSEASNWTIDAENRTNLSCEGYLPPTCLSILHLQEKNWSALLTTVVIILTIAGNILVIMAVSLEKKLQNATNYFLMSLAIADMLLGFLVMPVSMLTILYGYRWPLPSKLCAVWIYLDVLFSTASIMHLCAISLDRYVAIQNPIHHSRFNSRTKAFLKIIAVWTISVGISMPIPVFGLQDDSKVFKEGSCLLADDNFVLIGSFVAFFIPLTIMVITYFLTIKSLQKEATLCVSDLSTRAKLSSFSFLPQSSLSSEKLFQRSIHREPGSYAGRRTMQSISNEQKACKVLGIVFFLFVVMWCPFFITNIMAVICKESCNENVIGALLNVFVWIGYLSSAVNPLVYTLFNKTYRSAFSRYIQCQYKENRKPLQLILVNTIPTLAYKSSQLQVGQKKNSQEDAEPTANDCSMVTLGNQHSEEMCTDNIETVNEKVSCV
UniProt P28223, whole entry: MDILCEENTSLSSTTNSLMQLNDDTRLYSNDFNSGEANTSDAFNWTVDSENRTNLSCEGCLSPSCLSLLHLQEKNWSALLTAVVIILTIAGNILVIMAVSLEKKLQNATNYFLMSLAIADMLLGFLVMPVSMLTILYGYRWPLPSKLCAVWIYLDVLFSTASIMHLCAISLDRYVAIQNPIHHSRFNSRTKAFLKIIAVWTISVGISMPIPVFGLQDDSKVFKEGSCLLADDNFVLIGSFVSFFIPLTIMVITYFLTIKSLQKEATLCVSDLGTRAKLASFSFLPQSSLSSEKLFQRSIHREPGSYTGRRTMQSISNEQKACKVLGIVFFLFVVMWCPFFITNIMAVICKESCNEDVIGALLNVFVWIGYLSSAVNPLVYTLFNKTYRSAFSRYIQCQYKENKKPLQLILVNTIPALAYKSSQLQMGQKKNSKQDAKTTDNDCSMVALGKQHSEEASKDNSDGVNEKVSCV

Tests used:
5-HT2A receptor [1] = molecular target: T1, 5-HT2A receptor (Mus musculus, UniProt P35363); assay: Drug-induced Head Twitch Response (HTR); type: in vivo; settings: C57BL/6 mice; 1 mg/kg i.p.; 15-to-30-minute window after administration
T1 construct: 8-week old C57BL/6-Elite male and female mice were obtained from Charles River; tissue Charles River; host or cells: living C57BL/6-Elite mice (neuronal receptor, in vivo)

5-HT2A receptor [2] = molecular target: 5-HT2A receptor (Homo sapiens, UniProt P28223); settings: intact psilocybin molecule; McKenna and Peroutka 1989, PDSP Certified Data; cited from earlier work

In the case of CN(C)CCc1c[nH]c2cccc(OP(=O)(O)O)c12 [psilocybin, reference compound], the “Head Twitch Response (HTR) incidence relative to vehicle” value (5-HT2A receptor [1]) is listed as “Elevated incidences of HTR” and the “binding at 5-HT2A” value (5-HT2A receptor [2]) is listed as “very weak”.
